From PubChem BioAssay AID463205 (Broad Institute, 2010)
About 20 (0.8%) of roughly 2,400 compounds were called active.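 How the source made its calls: active means AC50 no more than ten times the highest tested concentration, or full inhibition at every dose giving a flat fit (cut at about 30 µM in these data); inconclusive means flat fit with activity between 30% and 70%, or poor-quality invalid fit; inactive means AC50 more than ten times the top tested dose.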 The list shows a part of the results.

Test: luciferase-based ADP detection interference – biochemical, luminescence, cell-free, homogeneous, artefact control for GSK-3a inhibitor project, dose response (AID 463205);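 further: kinase-free counter-screen against the ADP-Glo detection reagents only; potency is for inhibitors that reduce the luminescence signal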
Conditions: Cell-free ADP-Glo detection reagents, 5 uM ADP

AC50, inactive:
Clc1ccc(-c2nc3ncccn3c2Nc2ccc3c(c2)OCO3)cc1 > 30 µM
CCc1c(C)sc(NC(=O)C2CC2c2ccccc2)c1C(N)=O (stereo unspecified) > 30 µM
COc1cc(C2c3sc(=O)[nH]c3SC3C(=O)N(c4ccc(C)cc4)C(=O)C32)ccc1O (stereo unspecified) > 30 µM
Cc1ccc2cc(C#N)c(N3CCCN(C(=S)NCCCN(C)C)CC3)nc2c1 > 30 µM
COc1ccc(CCNC(=O)CSc2nc3[nH]ncc3c(=O)n2-c2ccc(Br)cc2)cc1OC > 30 µM
COc1cc(C2CC(=O)c3c([nH]c(C(=O)OCCOC(C)C)c3C)C2)cc(OC)c1OC (stereo unspecified) > 30 µM
COc1ccc2cc(C(N)=O)c(=Nc3ccc(C)cc3)oc2c1 > 30 µM
COc1c2ccccc2nc2ccccc12 > 30 µM
COCCCNC(=O)C(=O)NC1CCCCC1C (stereo unspecified) > 30 µM
CCC(C)[C@H](NC(=O)NCc1ccccc1Cl)C(=O)OC (stereo partly specified) > 30 µM
CCN(C(=O)CN1CCCCCC1)c1c(N)n(Cc2ccccc2)c(=O)[nH]c1=O > 30 µM
C/C(=N\NC(=O)c1nnn(-c2nonc2N)c1CN(C)C)c1ccco1 > 30 µM
Cc1sc2ncnc(N3CCC(C(=O)Nc4ccc(S(N)(=O)=O)cc4)CC3)c2c1C > 30 µM
CCOC(=O)CC1COc2ccccc2N1C(=O)c1ccc(C)cc1 (stereo unspecified) > 30 µM
CCSc1nc2c(c(=O)[nH]1)C(c1ccccn1)C1=C(CC(C)(C)CC1=O)N2 (stereo unspecified) > 30 µM
CCCCN(CC)C(=O)c1oc2ccc(S(=O)(=O)N3CCCC3)cc2c1C > 30 µM
CN(C)c1cccc(C(=O)N/N=C/c2ccccc2F)c1 > 30 µM
Cc1cc(NC(=O)CCSc2nc(-c3ccco3)cc(C(F)(F)F)n2)n(-c2ccccc2)n1 > 30 µM
CCOC(=O)CN1CC23C=CC(O2)C(C(=O)O)C3C1=O (stereo unspecified) > 30 µM
Cc1cc(=O)[nH]c2c(C)cc(S(=O)(=O)Nc3ccc(O)cc3)cc12 > 30 µM
Cc1ccc(OCC(=O)N2CCN(c3nnc(-c4ccccc4)c4ccccc34)CC2)cc1 > 30 µM
CCN=C1S/C(=C/c2ccc(-c3ccc(Cl)cc3C(=O)O)o2)C(=O)N1CC > 30 µM
Cc1cccc(C(=O)O/N=C(\N)c2cccc([N+](=O)[O-])c2)c1 > 30 µM
Cc1cnc(NC(=O)C2CC(=O)N(c3cccc(Cl)c3)C2)s1 (stereo unspecified) > 30 µM
CCN1C(=S)SC(=O)C1=C1C=C(C)N(Cc2ccco2)C(C)=C1 > 30 µM
O=C(O)c1cccc(Nc2nc(-c3cccnc3)nc3ccccc23)c1 > 30 µM
c1ccc2c(c1)CCc1c(-c3ccncc3)n[nH]c1-2 > 30 µM
CC1(C)CC(=O)C2=C(C1)Nc1nc(SCCN3CCOCC3)[nH]c(=O)c1C2c1cccs1 (stereo unspecified) > 30 µM
CC(=O)c1c(O)cc(O)cc1CC(=O)O > 30 µM
O=C(COC(=O)c1ccc(F)cc1F)Nc1ccc(Cl)cn1 > 30 µM
CCOC(=O)/C(C#N)=C/c1cn(CCC(=O)O)nc1-c1cccc(Br)c1 > 30 µM
Cc1cccc(OCC(=O)NNC(=O)c2cc3ccccc3oc2=O)c1 > 30 µM
CCCNc1nc(Cl)nc(Nc2ccc(Cl)cc2)n1 > 30 µM
COc1ccc([C@H]2[C@H](C(=O)C(C)(C)C)N3N=Cc4ccccc4C3[C@]23N=C(c2ccccc2)OC3=O)cc1OC (stereo partly specified) > 30 µM
CCOC(=O)CSc1ncnc2c(C(=O)OCC)c3n(c12)CCC3 > 30 µM
Cc1ccc(C(=O)N2NC(c3ccc(F)cc3)C3C(=O)N(c4ccc(C)cc4)C(=O)C32)cc1 (stereo unspecified) > 30 µM
CC1CN(c2nc(N(C)c3ccccc3)nc(N)c2[N+](=O)[O-])CC(C)O1 (stereo unspecified) > 30 µM
O=C(O)Cn1c(=O)c2c3c(sc2n(Cc2ccc(Cl)cc2Cl)c1=O)CCCC3 > 30 µM
C/C(=C/c1oc2ccc(O)cc2c1[N+](=O)[O-])N(C)C > 30 µM
COC(=O)c1cccc(Nc2nc(-c3cccnc3)nc3ccccc23)c1 > 30 µM
COc1cccc(CCNC(=O)c2cc(COc3c(F)cccc3F)on2)c1 > 30 µM
COCCn1c(SCC(=O)Nc2cc(C)on2)nc2ccccc21 > 30 µM
Cc1nc2ncnn2c(C)c1Cc1c(Cl)cccc1Cl > 30 µM
O=c1[nH]ncc(N/N=C\c2cccs2)c1Cl > 30 µM
CC(OC(=O)Cc1c[nH]c2ccccc12)C(=O)c1ccccc1 (stereo unspecified) > 30 µM
CC(=O)Nc1ccc2nsnc2c1 > 30 µM
CC(/C=N/NC(=O)CSc1nc2ccccc2n1C)=C\c1ccco1 > 30 µM
CCOC(=O)c1nnn(-c2nonc2N)c1-c1ccc(Cl)cc1 > 30 µM
O=C(Nc1cccc(Cl)c1N1CCOCC1)c1ccc(Br)o1 > 30 µM
COc1ccccc1C(=O)Nc1nc(C)cc(C)n1 > 30 µM
COc1ccc(OC)c(/C=C2\S/C(=N/NC(=O)c3ccc4ccccc4c3)NC2=O)c1 > 30 µM
COC(=O)c1oc2ccc(Br)cc2c1NC(=O)c1ccccc1 > 30 µM
Cc1cccc(C)c1OCC(=O)N=Nc1c(O)[nH]c2ccc(Br)cc12 > 30 µM
CC(C)c1onc(C(=O)N(C)C2CCCCC2)c1[N+](=O)[O-] > 30 µM
COc1ccc(/C=N/NC(=O)CSCc2ccc([N+](=O)[O-])cc2)cc1OC > 30 µM
COc1ccc(CC(=O)Nc2ccc(-c3cn4ccccc4n3)cc2)cc1OC > 30 µM
C=CCNc1cc(N2CCCC2)ccc1[N+](=O)[O-] > 30 µM
Cc1cc(=O)[nH]c2c(C)c(Cl)ccc12 > 30 µM
Fc1ccc(Nc2ncnc3ccccc23)cc1 > 30 µM
COc1ccc(C(=O)NCC(=O)N/N=C(C)\C=C\c2ccccc2)cc1OC > 30 µM
c1ccc2[nH]c(C3CC3)nc2c1 > 30 µM
O=[N+]([O-])c1cccnc1NCCc1ccccc1 > 30 µM
COCCNc1nnc(SCC(=O)NC2CCCCC2)s1 > 30 µM
N#Cc1c(N2CCOCC2)nc(N2CCCCC2)c2c1CCN(C1CCCCC1)C2 > 30 µM
COc1ccccc1CC(=O)N1CCOCC1 > 30 µM
CC(=O)c1cc(-c2ccc(F)cc2)n(CCC(=O)Nc2cccnc2)c1C > 30 µM
CCn1c(SCc2nc3sc(C(=O)O)c(C)c3c(=O)[nH]2)nc2ccccc21 > 30 µM
Cn1c(=O)c2c(nc(NCC3CCCO3)n2Cc2ccccc2)n(C)c1=O (stereo unspecified) > 30 µM
O=[N+]([O-])c1ccc(-c2nnc(CNC3CCCC3)o2)cc1 > 30 µM
Cc1c(O)ccc2c3c(c(=O)oc12)CCC(C)C3 (stereo unspecified) > 30 µM
O=C(Nc1cccc(-c2cnc3ccccc3n2)c1)c1cccc(NC(=O)c2ccco2)c1 > 30 µM
COC(=O)C1=C(C)N(CC(C)C)C(=O)/C1=C\c1cccs1 > 30 µM
Cc1ccnc(NC(=O)CN2C(=O)c3ccccc3S2(=O)=O)c1 > 30 µM
NNc1nc2sc3c(c2c(=O)[nH]1)CCc1ccccc1-3 > 30 µM
Nc1c(C(=O)O)cnc2c(-c3ccc(Cl)cc3)cnn12 > 30 µM
O=C(COc1ccc(-n2cnnn2)cc1)Nc1ccc(F)c(F)c1F > 30 µM
CC(C)Nc1nc(NC(C)C)nc(C(=O)OCCO)n1 > 30 µM
COc1ccc(NC(=O)c2nnn(Cc3ccc(SC)cc3)c2N)c(OC)c1 > 30 µM
COc1ccc(-c2ncncc2-c2ccc(Cl)cc2)c(O)c1 > 30 µM
COc1ccc([N+](=O)[O-])cc1NC(=O)CCN1CCN(C)CC1 > 30 µM
Fc1ccccc1-c1n[nH]c(=S)n1/N=C/c1c[nH]c2ccccc12 > 30 µM
CCC(Sc1ccc2nnc(-c3ccc(OC)c(OC)c3)n2n1)C(=O)O (stereo unspecified) > 30 µM
O=c1[nH]nnc2c1sc1nc(N3CCOCC3)c3c(c12)CCCC3 > 30 µM
Cc1ccc2c(c1)COc1c3ccc(C(=O)N4CCCCC4)cc3nn1-2 > 30 µM
COc1cc(NC(=O)c2cc([N+](=O)[O-])ccc2NC(=O)CNC2CCCCC2)cc(OC)c1 > 30 µM
COc1ccccc1/C=N/NC(=O)c1nnn(-c2nonc2N)c1-c1cccs1 > 30 µM
CC(=O)Nc1cccc(-c2csc(Nc3ccc(C)cn3)n2)c1 > 30 µM
COCCOC(=O)c1[nH]c2c(c1C)C(=O)CC(c1cc(OC)c(OC)c(OC)c1)C2 (stereo unspecified) > 30 µM
CCN1CCN(c2c(Cl)cccc2NC(=O)c2cc3ccccc3o2)CC1 > 30 µM
Cc1cn(C2OC(CC(=O)Oc3ccccc3)C(O)C2O)c(=O)[nH]c1=O (stereo unspecified) > 30 µM
O=C(O)COc1ccccc1/C=N/NC(=O)CSc1nnc(SCc2ccccc2)s1 > 30 µM

Looked up by structure from the list above (6):
AC50, inactive:
COc1ccc(CCNC(=O)CSc2nc3[nH]ncc3c(=O)n2-c2ccc(Br)cc2)cc1OC > 30 µM
COC(=O)C1=C(C)N(CC(C)C)C(=O)/C1=C\c1cccs1 > 30 µM
CCN1C(=S)SC(=O)C1=C1C=C(C)N(Cc2ccco2)C(C)=C1 > 30 µM
C=CCNc1cc(N2CCCC2)ccc1[N+](=O)[O-] > 30 µM
Fc1ccc(Nc2ncnc3ccccc23)cc1 > 30 µM
COc1ccccc1C(=O)Nc1nc(C)cc(C)n1 > 30 µM

Taken from the results shown for reference:
AC50, inactive:
Cc1ccc2cc(C#N)c(N3CCCN(C(=S)NCCCN(C)C)CC3)nc2c1 > 30 µM
COc1ccc(CCNC(=O)CSc2nc3[nH]ncc3c(=O)n2-c2ccc(Br)cc2)cc1OC > 30 µM
COc1cc(C2CC(=O)c3c([nH]c(C(=O)OCCOC(C)C)c3C)C2)cc(OC)c1OC (stereo unspecified) > 30 µM
